# In US6962920B2, “Pyrimidine derivatives and methods of making and using these derivatives” (Duquesne University of the Holy Ghost, priority 1992, dated 2005):
# Some of these results come from one statement about several compounds together.
# Target: T1, Tg DHFR (Toxoplasma gondii, UniProt Q07422)
# T1 sequence (Q07422 1-610): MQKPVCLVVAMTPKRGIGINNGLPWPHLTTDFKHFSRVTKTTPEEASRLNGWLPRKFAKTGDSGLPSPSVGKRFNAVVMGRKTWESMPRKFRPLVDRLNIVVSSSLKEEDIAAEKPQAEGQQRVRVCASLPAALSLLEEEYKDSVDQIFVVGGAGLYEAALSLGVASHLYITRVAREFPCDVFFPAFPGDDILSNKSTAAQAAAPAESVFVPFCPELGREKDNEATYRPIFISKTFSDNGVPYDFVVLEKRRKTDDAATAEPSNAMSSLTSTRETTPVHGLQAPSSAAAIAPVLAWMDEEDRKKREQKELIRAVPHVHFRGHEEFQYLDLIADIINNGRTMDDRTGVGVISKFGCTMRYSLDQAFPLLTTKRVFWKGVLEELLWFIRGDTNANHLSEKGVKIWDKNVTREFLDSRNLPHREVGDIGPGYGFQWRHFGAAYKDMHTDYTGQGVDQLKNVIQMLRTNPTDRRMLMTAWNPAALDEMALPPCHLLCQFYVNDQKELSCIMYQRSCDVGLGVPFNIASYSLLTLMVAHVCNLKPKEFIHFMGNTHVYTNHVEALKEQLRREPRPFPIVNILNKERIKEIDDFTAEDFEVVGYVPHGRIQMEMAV
# Format: biochemical
# Details: Table 22
# Experimental: The selectivity ratio is a measure of the selectivity of a compound for Pc DHFR or Tg DHFR and is expressed as the IC50 value of the DHFR from rate liver (RL) divided by the IC50 value of either the Pc DHFR or the Tg DHFR, depending on which organism the compounds are being tested against. For example, the selectivity ratio of a compound is calculated by the following formula: [formula]
row,SMILES,tgDHFR IC50
1,Nc1nc(O)c2c(CNc3cccc(Cl)c3)c[nH]c2n1 [Compound 415],micromolar inhibitors
2,Nc1nc2[nH]cc(CNc3ccc(Cl)cc3Cl)c2c(=O)[nH]1 [Compound 414],micromolar inhibitors
3,COc1ccc(NCc2c[nH]c3nc(N)[nH]c(=O)c23)c(OC)c1 [Compound 410],micromolar inhibitors
4,COc1cc(NCc2c[nH]c3nc(N)nc(O)c23)cc(OC)c1OC [Compound 411],micromolar inhibitors
5,COc1ccc(OC)c(NCc2c[nH]c3nc(N)nc(O)c23)c1 [Compound 408],micromolar inhibitors
6,Nc1nc(O)c2c(CNc3cc(Cl)cc(Cl)c3)c[nH]c2n1 [Compound 413],micromolar inhibitors
